Measured values as given in PMC9503660.
The exact form of at least one protein or probe is not confirmed.

System: cytochrome c
Assay: thioflavin T displacement fluorescence (loss of ThT/G4 signal on cyt c addition)
Conditions: ThT, 1 mM K+, signal restored by trypsin digestion of cyt c; 50 mM Tris, 1 mM KCl, pH 7.5; temperature not stated; optimized 250 nM aptamer, 80 uM cyt c, 10 uM ThT, 45 min; commercial protein; folded or branched DNA

Q: Does “CCGTGTCTGGGGCCGACCGGCGCATTGGGTACGTTGTTGCAAAAAGGGTTAGGGTTAGGGTTAGGGC [cyt c DNA aptamer with G-quadruplex (GGGTTA repeat) tail]” bind?
A: Result: binds
